{"source": "patent US20220145323", "key": {"TnpA (IS608 transposase) [1]": {"molecular_target": "T1, TnpA (IS608 transposase) (UniProt Q933Z0)", "T1 sequence (looked up, limits assumed)": "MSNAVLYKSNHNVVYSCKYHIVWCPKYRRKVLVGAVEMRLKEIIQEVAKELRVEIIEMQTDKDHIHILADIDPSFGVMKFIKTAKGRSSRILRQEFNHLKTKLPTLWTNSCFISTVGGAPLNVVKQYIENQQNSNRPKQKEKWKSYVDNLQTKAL", "test": "enzyme reaction in vitro", "settings": "purified recombinant protein, label: 5'-32P"}, "TnpA (IS608 transposase) [2]": {"molecular_target": "T1, TnpA (IS608 transposase)", "test": "structure", "settings": "TnpA/LE29/T6' ternary structure; purified recombinant protein"}, "[3]": {"settings": "integration greatly enhanced by extended 8 bp pairing"}, "[4]": {"settings": "no integration product even with 10-fold excess"}}, "note": "The exact form of at least one protein or probe is not confirmed. For part of these data: No signal at the amounts used counts as a negative. Where a protein sequence is shown, tags need not be part of it. For part of these data: The comparison behind a weaker result is the experiment's own reference, which may not be listed here.", "data": [{"sequence": "CTCATGCTTTAGCTAGAATCCCCTAGCTTTAGCTATGGGGAGTATGTCAACAAAACTAACGCCTTAAACCCCCTAGCTTTTAGCTATGGGGTTCGCCCGGAAAACGCCTT / CCGATGATGAGGAACCCCCCCCTCCGGGCGTCGTTAGTGATGATGAGGAACCCCCCCCTAGTGATGATGAGGATT [J4 junction ; T4c]", "values": [{"measurement": "activity on this sequence", "setting": "TnpA (IS608 transposase) [1]; [3]", "value": "active"}]}, {"sequence": "AAAGCCCCTAGCTTTTAGCTATGGGGATA / ATTACC [LE29 ; T6']", "values": [{"measurement": "binding result", "setting": "TnpA (IS608 transposase) [2]", "value": "binds"}]}, {"sequence": "CTCATGCTTTAGCTAGAATCCCCTAGCTTTAGCTATGGGGAGTATGTCAACAAAACTAACGCCTTAAAGCCCCTAGCTTTTAGCTATGGGGTTCGCCCGGATGATTCCTT / CCGATGATGAGGAACCCCCCCCTAGGGGCGTCGTTACTGATGATGAGGAACCCCCCCCTAGT [J3 junction ; T3c_2]", "values": [{"measurement": "activity on this sequence", "setting": "TnpA (IS608 transposase) [1]; 5 nt complementarity, not selected over Tr, outcompeted by T3c_1", "value": "less active"}]}, {"sequence": "CTCATGCTTTAGCTAGAATCCCCTAGCTTTAGCTATGGGGAGTATGTCAACAAAACTAACGCCTTAAAGCCCCTAGCTTTTAGCTATGGGGTTCGCCCGGATGATTCCTT / CCGATGATGAGGAACCCAATCATCCGGGCGTCGTTACTGATGATGAGGAACCCCCCCCTAGTGATGATGAGGATT [J3 junction ; T3c_1]", "values": [{"measurement": "activity on this sequence", "setting": "TnpA (IS608 transposase) [1]; 13 bp complementarity, exclusive integration over T3c_2", "value": "active"}]}, {"sequence": "CTCATGCTTTAGCTAGAATCCCCTAGCTTTAGCTATGGGGAGTATGTCAACAAAACTAACGCCTTAAAGCCCCTAGCTTTTAGCTATGGGGTTGCCCGAACAAACGCCTT / CCGATGATGAGGAACCCCCCCCGTTCGGGCTGATTACTGATGATGAGGAACCCCCCCCTAGTGATGATGAGGATT [J2 junction ; T2c]", "values": [{"measurement": "activity on this sequence", "setting": "TnpA (IS608 transposase) [1]; efficient integration into complementary target, 5 mM MgCl2", "value": "active"}]}, {"sequence": "CTCATGCTTTAGCTAGAATCCCCTAGCTTTAGCTATGGGGAGTATGTCAACAAAACTAACGCCTTCAAACCCCTAGCTTTTAGCTATGGGGTTCGCCCGGAAAACGCCTT / CCGATGATGAGGAACCCCCCCCTAGAGCTTTTATGATTGATGATGAGGAACCCCCCCCTAGTGATGA [J5 junction ; T5r]", "values": [{"measurement": "activity on this sequence", "setting": "TnpA (IS608 transposase) [1]; [4]", "value": "not active"}]}, {"sequence": "CTCATGCTTTAGCTAGAATCCCCTAGCTTTAGCTATGGGGAGTATGTCAACAAAACTAACGCCTTCAAACCCCTAGCTTTTAGCTATGGGGTTCGCCCGGAAAACGCCTT / CCGATGATGAGGAACCCCCCCCTCCGGGCGTCGTGATTGATGATGAGGAACCCCCCCCTAGTGATGATGAGGATT [J5 junction ; T5c]", "values": [{"measurement": "activity on this sequence", "setting": "TnpA (IS608 transposase) [1]; [3]", "value": "active"}]}, {"sequence": "CTCATGCTTTAGCTAGAATCCCCTAGCTTTAGCTATGGGGAGTATGTCAACAAAACTAACGCCTTAAAGCCCCTAGCTTTTAGCTATGGGGTTCGCCCGGAAAACGCCTT / CCGATGATGAGGAACCCCCCCCTCCGGGCGTCGTTACTGATGATGAGGAACCCCCCCCTAGTGATGATGAGGATT [J1 junction ; T1c]", "values": [{"measurement": "activity on this sequence", "setting": "TnpA (IS608 transposase) [1]; cleavage and strand transfer, 5 mM MgCl2, pH 7.5, 37 C, preferred over Tr and 20-fold scrambled targets", "value": "active"}]}, {"sequence": "CTCATGCTTTAGCTAGAATCCCCTAGCTTTAGCTATGGGGAGTATGTCAACAAAACTAACGCCTTAAACCCCCTAGCTTTTAGCTATGGGGTTCGCCCGGAAAACGCCTT / CCGATGATGAGGAACCCCCCCCTAGAGCTTTTATTAGTGATGATGAGGAACCCCCCCCTAGTGATGA [J4 junction ; T4r]", "values": [{"measurement": "activity on this sequence", "setting": "TnpA (IS608 transposase) [1]; [4]", "value": "not active"}]}]}
